In patent US20030028927A1 (priority 2001, published 2003):
At least one compound was matched to its structure with a doubt left.

What was measured:
Assay type in all cases: in vivo, Arabidopsis thaliana
[1] = test system: F1 seedlings (Col x Ler and Ler x Cvi); test: Phenotypes of F1 progeny of accession crosses with GdA; details: Col/Ler F1, 2 μM GdA
Description: To investigate the interplay of genetic variation, stochastic processes, and their dependence on the Hsp90 buffering system, Applicants tested crosses of different, nearly homozygous accessions (Col x Ler and Ler x Cvi) that are believed to have been recentlyevolving independently. If stochastic events contribute to phenotypes predisposed by genotype, then mixing genomes might disrupt developmental stability in F1 progeny. Further, if Hsp90 buffers developmental stability against such events, reducing Hsp90 function in nearly identical F1 progeny should increase phenotypic variance. […] Phenotypes were stronger and more frequent in seedlings with a maternal contribution from Ler (˜20 to 25% affected seedlings) than with maternal contributions from Col or Cvi (˜10 to 15%).
Ecotypes were crossed several times in independent experiments to produce F1 seeds. […] Plates were unwrapped after 48 hrs at 22° C., were incubated in continuous light at ˜150 μmol m^−2 sec^−1 (unless otherwise indicated), and were analyzed after eight and ten days of growth.

[2] = test system: Cvi/Ler RI line seedlings; test: Dark response / developmental plasticity of RI lines with GdA
Hsp101 and Hsp70 = test: Expression of Hsp101 and Hsp70 by Western blotting; details: eight randomly selected RI lines incl. 113, 119; 22° C. in the presence of GdA
[3] = test system: Cvi/Ler RI line seedlings; test: Root response to a change in the direction of gravity; details: RI line 129; Wilcoxon two-sample test
[4] = test system: RI lines 104 and 159, parental ecotypes; test: Root morphology at different phytagel concentrations

## COC1=C2C[C@@H](C)C[C@H](OC)[C@H](O)[C@@H](C)/C=C(\C)[C@H](OC(N)=O)[C@@H](OC)/C=C\C=C(/C)C(=O)NC(=CC1=O)C2=O [GdA, geldanamycin]
[1]
  abundance of phenotypes in F1 seedlings: even greater abundance of phenotypes
  vigor and development of F1 seedlings versus parental ecotypes: more vigorous and advanced in development
[2]; RI line 079 compared with 132
  effect on root elongation and germination: more affected in 079
[2]; RI line 132 compared with 079
  effect on hypocotyl elongation and greening: more strongly affected in 132
[2]; RI lines 077 and 129
  effect on hypocotyl elongation in the dark: very little effect
[2]; RI lines 086 and 116
  effect on hypocotyl elongation in the dark: reduced hypocotyl growth to nearly the values obtained in white light
[2]; parental lines Cvi and Ler
  effect on hypocotyl elongation in the dark: moderate reductions in hypocotyl length
Hsp101 and Hsp70
  Hsp101 and Hsp70 expression (heat-shock response): None showed detectable Hsp expression
[3]
  root turning after rotating plates by 90°: roots turned more efficiently with GdA than without
[4]; RI line 104, GdA, 4.0 g/L phytagel
  penetrance of root development trait: highly penetrant
[4]; RI lines 104 and 159, phytagel 2.0, 2.4, 3.0 and 4.0 g/L
  root morphology phenotypes: stronger with GdA than without GdA
[4]; parental ecotypes Cvi and Ler and the other 48 RI lines
  root hair profusion response: did not respond with root hair profusion
